Results are given in words; binding and its absence hold for the method and conditions named. Some binding calls cover weakened binding; strength is not graded here. For some assays here: Sequences can lack the tags named with a protein.
Columns and labels:
[1] = target: ApoER2 cytoplasmic tail with its alternatively spliced insert, LexA fusion protein (ApoER2+ mouse) (mouse) (UniProt Q924X6); assay: yeast two-hybrid, LexA tail bait against prey
[2] = target: ApoER2 cytoplasmic tail without its alternatively spliced insert, LexA fusion protein (ApoER2- mouse) (mouse) (UniProt Q924X6); assay: yeast two-hybrid, told again
[3] = target: LRP complete cytoplasmic tail LexA fusion protein (LRP human) (human) (UniProt Q07954); assay: yeast two-hybrid, told again
[4] = target: T1, LR11 cytoplasmic tail LexA fusion protein (LR11 human) (human); assay: yeast two-hybrid, told again
T1 sequence: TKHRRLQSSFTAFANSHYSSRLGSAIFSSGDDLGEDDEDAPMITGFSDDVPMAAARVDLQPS

The chains behind the UniProt entries cited, without tags or fusion partners. Where a name states a change or a piece, a line headed by the entry shows the natural chain unless it says otherwise.
UniProt Q924X6: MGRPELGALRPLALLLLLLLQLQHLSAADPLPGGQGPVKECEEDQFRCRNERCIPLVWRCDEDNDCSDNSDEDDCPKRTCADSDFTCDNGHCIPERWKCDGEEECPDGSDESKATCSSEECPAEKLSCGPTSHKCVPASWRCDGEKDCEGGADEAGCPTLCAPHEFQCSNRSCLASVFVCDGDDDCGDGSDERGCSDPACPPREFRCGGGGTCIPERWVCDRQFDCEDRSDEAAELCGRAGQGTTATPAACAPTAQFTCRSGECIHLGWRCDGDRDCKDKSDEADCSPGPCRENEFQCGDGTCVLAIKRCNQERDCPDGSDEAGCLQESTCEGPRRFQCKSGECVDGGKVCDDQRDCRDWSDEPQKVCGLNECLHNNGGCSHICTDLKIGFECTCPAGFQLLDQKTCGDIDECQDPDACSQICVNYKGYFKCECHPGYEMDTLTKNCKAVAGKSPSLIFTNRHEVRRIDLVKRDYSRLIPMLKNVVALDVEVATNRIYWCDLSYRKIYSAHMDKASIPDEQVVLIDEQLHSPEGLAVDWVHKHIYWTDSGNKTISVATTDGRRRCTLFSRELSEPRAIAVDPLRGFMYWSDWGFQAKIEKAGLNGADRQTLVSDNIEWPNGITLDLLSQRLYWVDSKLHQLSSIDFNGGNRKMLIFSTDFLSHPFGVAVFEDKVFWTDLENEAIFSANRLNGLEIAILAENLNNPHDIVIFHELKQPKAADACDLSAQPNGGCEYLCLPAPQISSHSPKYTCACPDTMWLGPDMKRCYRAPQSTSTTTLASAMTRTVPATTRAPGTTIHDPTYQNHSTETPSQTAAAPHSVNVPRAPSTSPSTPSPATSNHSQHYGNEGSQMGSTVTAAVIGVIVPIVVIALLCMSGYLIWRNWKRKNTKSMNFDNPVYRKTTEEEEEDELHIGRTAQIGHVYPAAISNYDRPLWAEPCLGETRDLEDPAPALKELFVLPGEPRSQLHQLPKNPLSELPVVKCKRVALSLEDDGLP
UniProt Q07954: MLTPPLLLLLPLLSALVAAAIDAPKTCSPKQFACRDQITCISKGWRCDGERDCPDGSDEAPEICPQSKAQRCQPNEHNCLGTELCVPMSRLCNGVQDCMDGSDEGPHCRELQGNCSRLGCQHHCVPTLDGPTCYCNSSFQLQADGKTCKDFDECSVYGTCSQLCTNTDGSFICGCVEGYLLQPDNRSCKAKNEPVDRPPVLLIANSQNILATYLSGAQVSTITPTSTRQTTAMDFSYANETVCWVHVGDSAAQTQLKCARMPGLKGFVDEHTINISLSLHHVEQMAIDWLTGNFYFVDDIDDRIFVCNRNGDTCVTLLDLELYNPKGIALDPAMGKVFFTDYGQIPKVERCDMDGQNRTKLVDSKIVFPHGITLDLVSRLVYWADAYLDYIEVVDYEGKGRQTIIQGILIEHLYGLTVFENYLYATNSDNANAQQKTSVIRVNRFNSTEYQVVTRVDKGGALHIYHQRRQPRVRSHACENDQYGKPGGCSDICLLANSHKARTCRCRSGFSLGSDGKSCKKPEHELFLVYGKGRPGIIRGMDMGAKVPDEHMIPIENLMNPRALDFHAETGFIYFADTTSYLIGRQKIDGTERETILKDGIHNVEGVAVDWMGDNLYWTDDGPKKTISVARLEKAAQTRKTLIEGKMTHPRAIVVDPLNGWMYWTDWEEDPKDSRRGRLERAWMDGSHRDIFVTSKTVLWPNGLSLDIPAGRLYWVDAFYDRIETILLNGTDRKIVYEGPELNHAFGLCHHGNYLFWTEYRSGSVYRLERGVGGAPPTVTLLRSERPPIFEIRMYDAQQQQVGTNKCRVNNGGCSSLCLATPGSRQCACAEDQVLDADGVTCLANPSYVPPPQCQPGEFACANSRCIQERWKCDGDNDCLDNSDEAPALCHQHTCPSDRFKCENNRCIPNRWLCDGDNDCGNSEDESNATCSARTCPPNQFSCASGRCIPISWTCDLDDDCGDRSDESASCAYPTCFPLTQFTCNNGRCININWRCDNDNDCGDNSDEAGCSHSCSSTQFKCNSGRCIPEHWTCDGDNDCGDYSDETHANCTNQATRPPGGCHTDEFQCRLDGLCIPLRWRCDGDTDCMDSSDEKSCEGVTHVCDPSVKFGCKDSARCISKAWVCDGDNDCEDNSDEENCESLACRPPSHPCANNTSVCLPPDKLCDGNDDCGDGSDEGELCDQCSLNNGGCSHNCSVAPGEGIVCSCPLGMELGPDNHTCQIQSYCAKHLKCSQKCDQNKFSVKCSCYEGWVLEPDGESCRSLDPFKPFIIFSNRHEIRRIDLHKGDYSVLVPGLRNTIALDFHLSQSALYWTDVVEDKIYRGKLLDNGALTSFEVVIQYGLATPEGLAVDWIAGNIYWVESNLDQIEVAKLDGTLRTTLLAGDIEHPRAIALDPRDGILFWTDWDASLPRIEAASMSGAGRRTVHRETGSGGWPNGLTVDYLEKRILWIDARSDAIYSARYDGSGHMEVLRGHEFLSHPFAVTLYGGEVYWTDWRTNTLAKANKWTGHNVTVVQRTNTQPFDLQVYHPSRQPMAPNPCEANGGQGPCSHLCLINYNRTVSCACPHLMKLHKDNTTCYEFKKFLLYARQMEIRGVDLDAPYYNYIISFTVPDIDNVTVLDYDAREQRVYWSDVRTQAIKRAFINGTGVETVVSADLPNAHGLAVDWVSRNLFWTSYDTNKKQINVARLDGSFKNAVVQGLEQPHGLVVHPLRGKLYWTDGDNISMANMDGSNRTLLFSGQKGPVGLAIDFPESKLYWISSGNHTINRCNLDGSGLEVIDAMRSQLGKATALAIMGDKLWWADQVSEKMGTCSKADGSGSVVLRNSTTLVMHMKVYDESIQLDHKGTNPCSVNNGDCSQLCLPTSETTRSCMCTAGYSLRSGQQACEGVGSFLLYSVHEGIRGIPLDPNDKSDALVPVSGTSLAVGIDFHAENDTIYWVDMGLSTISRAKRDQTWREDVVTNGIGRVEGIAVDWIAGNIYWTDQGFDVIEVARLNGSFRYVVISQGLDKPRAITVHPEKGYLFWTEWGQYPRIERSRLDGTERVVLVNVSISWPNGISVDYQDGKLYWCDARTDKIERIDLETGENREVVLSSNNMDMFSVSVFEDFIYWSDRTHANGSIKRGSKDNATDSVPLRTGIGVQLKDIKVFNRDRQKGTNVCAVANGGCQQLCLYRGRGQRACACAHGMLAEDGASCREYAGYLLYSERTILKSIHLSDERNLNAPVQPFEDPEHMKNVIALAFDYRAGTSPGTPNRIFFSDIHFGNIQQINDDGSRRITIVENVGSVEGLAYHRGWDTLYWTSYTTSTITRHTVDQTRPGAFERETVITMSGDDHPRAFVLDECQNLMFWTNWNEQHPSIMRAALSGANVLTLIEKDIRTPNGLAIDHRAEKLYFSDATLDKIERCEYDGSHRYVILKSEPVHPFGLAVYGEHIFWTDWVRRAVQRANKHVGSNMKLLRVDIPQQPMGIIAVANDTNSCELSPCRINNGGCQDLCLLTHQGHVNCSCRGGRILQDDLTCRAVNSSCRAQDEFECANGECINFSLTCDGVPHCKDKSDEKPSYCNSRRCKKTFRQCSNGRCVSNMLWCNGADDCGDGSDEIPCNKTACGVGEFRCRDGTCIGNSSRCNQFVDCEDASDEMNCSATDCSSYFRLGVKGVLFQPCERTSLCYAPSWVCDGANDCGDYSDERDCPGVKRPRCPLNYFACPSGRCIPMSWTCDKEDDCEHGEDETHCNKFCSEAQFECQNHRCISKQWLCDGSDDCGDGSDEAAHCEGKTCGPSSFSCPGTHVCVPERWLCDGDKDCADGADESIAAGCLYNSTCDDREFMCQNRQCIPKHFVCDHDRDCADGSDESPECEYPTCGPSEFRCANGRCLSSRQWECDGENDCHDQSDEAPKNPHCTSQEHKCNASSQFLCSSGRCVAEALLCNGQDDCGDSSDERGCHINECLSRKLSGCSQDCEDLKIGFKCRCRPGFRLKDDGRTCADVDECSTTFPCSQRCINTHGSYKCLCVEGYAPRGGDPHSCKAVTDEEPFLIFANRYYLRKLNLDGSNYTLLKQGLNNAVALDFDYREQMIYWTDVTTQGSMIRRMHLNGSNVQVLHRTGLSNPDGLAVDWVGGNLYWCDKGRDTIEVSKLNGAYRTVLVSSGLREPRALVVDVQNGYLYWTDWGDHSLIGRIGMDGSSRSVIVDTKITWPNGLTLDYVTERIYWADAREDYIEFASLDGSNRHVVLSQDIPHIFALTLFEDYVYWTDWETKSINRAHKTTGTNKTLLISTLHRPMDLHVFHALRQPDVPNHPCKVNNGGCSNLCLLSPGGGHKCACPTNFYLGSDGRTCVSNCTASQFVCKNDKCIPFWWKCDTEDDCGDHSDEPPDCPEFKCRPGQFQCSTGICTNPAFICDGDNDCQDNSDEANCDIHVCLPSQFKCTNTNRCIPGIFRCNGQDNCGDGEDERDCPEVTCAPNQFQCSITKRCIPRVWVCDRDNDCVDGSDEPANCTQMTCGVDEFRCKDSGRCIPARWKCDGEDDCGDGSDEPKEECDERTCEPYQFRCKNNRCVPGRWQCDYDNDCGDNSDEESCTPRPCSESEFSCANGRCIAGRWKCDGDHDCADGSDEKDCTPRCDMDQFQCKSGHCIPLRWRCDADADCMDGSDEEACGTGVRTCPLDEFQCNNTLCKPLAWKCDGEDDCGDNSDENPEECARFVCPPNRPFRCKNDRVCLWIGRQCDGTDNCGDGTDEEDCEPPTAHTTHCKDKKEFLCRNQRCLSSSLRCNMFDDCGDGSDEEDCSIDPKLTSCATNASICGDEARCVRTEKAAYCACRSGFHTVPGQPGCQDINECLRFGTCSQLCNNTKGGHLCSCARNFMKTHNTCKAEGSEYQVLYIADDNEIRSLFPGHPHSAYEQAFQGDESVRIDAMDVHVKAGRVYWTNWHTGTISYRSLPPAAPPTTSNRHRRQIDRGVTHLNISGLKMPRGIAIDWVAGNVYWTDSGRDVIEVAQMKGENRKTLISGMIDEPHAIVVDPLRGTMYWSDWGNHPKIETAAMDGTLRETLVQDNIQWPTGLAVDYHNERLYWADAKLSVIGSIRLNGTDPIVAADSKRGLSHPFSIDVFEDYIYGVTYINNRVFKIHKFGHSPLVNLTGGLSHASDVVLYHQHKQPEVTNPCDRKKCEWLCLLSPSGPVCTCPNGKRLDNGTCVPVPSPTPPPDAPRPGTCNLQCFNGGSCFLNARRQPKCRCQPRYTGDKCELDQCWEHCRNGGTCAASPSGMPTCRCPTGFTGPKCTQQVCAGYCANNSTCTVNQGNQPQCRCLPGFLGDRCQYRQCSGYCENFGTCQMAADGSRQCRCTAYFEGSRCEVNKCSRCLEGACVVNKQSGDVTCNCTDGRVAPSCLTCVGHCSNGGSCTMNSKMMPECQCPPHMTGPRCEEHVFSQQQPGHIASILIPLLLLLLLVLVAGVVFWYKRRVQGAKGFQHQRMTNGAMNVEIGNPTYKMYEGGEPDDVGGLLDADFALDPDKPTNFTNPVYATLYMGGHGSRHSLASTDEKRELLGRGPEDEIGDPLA

[5] = target: VLDL receptor cytoplasmic tail LexA fusion protein (VLDLR mouse) (mouse); assay: yeast two-hybrid, told again
[6] = target: LDL receptor cytoplasmic tail LexA fusion protein (LDLR human) (human) (UniProt P01130); assay: yeast two-hybrid, told again
[7] = target: T2, Megalin complete cytoplasmic tail LexA fusion protein (Meg human) (human) (UniProt P98164); assay: yeast two-hybrid, told again
T2 sequence: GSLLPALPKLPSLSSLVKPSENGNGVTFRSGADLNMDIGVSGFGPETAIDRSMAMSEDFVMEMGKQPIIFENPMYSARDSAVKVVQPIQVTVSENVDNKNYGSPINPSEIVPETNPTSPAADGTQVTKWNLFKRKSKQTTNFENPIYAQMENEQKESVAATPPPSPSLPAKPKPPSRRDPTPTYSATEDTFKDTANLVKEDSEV

[8] = target: ApoER2 cytoplasmic tail with its alternatively spliced insert, LexA fusion protein (ApoER2+ mouse) (mouse) (UniProt Q924X6); assay: yeast two-hybrid, told again
[9] = target: T3, MegA, part of the Megalin cytoplasmic tail, LexA fusion protein (MegA human) (human) (UniProt P98164); assay: yeast two-hybrid, LexA tail bait against B42AD-Dab1
T3 sequence: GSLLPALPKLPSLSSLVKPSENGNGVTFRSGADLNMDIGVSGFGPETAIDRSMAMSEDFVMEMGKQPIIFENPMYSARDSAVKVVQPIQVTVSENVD

[10] = target: ApoER2 cytoplasmic tail without its alternatively spliced insert, LexA fusion protein (ApoER2- mouse) (mouse) (UniProt Q924X6); assay: as above
[11] = target: LRPB, part of the LRP cytoplasmic tail, LexA fusion protein (LRPB human) (human) (UniProt Q07954); assay: as above
[12] = target: LRP complete cytoplasmic tail LexA fusion protein (LRP human) (human) (UniProt Q07954); assay: as above
[13] = target: T1, LR11 cytoplasmic tail LexA fusion protein (LR11 human) (human); assay: as above
[14] = target: VLDL receptor cytoplasmic tail LexA fusion protein (VLDLR mouse) (mouse); assay: as above
[15] = target: LDL receptor cytoplasmic tail LexA fusion protein (LDLR human) (human) (UniProt P01130); assay: as above
[16] = target: T2, Megalin complete cytoplasmic tail LexA fusion protein (Meg human) (human); assay: as above
[17] = target: ApoER2 cytoplasmic tail with its alternatively spliced insert, LexA fusion protein (ApoER2+ mouse) (mouse) (UniProt Q924X6); assay: as above

Measured: binding

B1: JIP-1 (protein, not shown: large carriers)
chain: MAERESGLGGGAASPPAASPFLGLHIASPPNFRLTHDISLEEFEDEDLSEITDECGISLQCKDTLSLRPPRAGLLSAGSSGSAGSRLQAEMLQMDLIDAAGDTPGAEDDEEEEDDELAAQRPGVGPPKAESNQDPAPRSQGQGPGTGSGDTYRPKRPTTLNLFPQVPRSQDTLNNNSLGKKHSWQDRVSRSSSPLKTGEQTPPHEHICLSDELPPQGSPVPTQDRGTSTDSPCRRSAATQMAPPSGPPATAPGGRGHSHRDRIHYQADVRLEATEEIYLTPVQRPPDPAEPTSTFMPPTESRMSVSSDPDPAAYSVTAGRPHPSISEEDEGFDCLSSPERAEPPGGGWRGSLGEPPPPPRASLSSDTSALSYDSVKYTLVVDEHAQLELVSLRPCFGDYSDESDSATVYDNCASASSPYESAIGEEYEEAPQPRPPTCLSEDSTPDEPDVFSKKFLNVFMSGRSRSSSAESFGLFSCVINGEEHEQTHRAIFRFVPRHEDELELEVDDPLLVELQAEDYWYEAYNMRTGARGVFPAYYAIEVTKEPEHMAALAKNSCVLEISVRGVKIGVKADDALEAKGNKCSHFFQLKNISFCGYHPKNNKYFGFITKHPADHRFACHVFVSEDSTKALAESVGRAFQQFYKQFVEYTCPTEDIYLE
binds: [1]

B2: Disabled-1 (Dab1), two-hybrid prey in pB42AD (protein, UniProt P97318-2 1-555, looked up, not shown: large carriers)
chain: MSTETELQVAVKTSAKKDSRKKGQDRSEATLIKRFKGEGVRYKAKLIGIDEVSAARGDKLCQDSMMKLKGVVAGARSKGEHKQKIFLTISFGGIKIFDEKTGALQHHHAVHEISYIAKDITDHRAFGYVCGKEGNHRFVAIKTAQAAEPVILDLRDLFQLIYELKQREELEKKAQKDKQCEQAVYQTILEEDVEDPVYQYIVFEAGHEPIRDPETEENIYQVPTSQKKEGVYDVPKSQPVSAVTQLELFGDMSTPPDITSPPTPATPGDAFLPSSSQTLPGSADVFGSMSFGTAAVPSGYVAMGAVLPSFWGQQPLVQQQIAMGAQPPVAQVIPGAQPIAWGQPGLFPATQQAWPTVAGQFPPAAFMPTQTVMPLAAAMFQGPLTPLATVPGTNDSARSSPQSDKPRQKMGKESFKDFQMVQPPPVPSRKPDQPSLTCTSEAFSSYFNKVGVAQDTDDCDDFDISQLNLTPVTSTTPSTNSPPTPAPRQSSPSKSSASHVSDPTADDIFEEGFESPSKSEEQEAPDGSQASSTSDPFGEPSGEPSGDNISPQDGS
not listed: [1]
binds: all other assays above
